Measurements from EP2060581A1 (Chemotherapeutisches Forschungsinstitut Georg-Speyer-Haus, dated 2009).
Results are given in words; binding and its absence hold for the method and conditions named. Some entries that bind do so weakly or less than the wild type.

Target: T1, ErbB2 receptor (UniProt P04626 23-1255)
T1 construct: Whole endogenous receptor from cell extracts, immunoprecipitated with an ErbB2 antibody
Assay: immunofluorescence microscopy of transduced cells

B1: mt bTrx-All-7 (designed binder)
chain: MSDKIIHLTDDSFDTDVLKADGAILVDFWAEWSGPPLNFYRHGFLPNAVMASMLEVGPWFELLGPCGLAGHPLSSLRIGPSKMIAPILDEIADEYQGKLTVAKLNIDQNPGTAPKYGIRGIPTLLLFKNGEVAATKVGALSKGQLKEFLDANLA
notes: Purified recombinant protein; Largely monomeric; also called All-7 aptamer in mutated bTrx (mt); All-7 in the mutated scaffold; not shown: Flag-tag, one or two His-tags and a 9R protein transduction domain
Q: B1 was tested. Which binding did it give?
A: Its binding is “binds”.
